Measured data: PubChem BioAssay AID1159578 (Peter MacCallum Cancer Centre, 2015)
This is an unselected part of about 18,000 deposited reagents. In the full data, about 1,030 (5.7%) are marked active. 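Inactive calls also include pools with fewer than 3300 nuclei, whose migration was not assessed.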 Raw values are not corrected between plates. A number with no mark means an inactive call.

Assay: 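Genome-wide hunt for genes controlling movement of lymphatic endothelial cells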 (primary screen)
System: human lymphatic endothelial cells
Knock-down reagent: siRNA pool against human genes, 40 nM
Duration: 48 h after transfection
Measured: 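Cells stained with dye and imaged after a scratch; covered wound area and nuclei counted, duplicates averaged, migration set against mock wells and turned into a robust z-score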
Reading the numbers: migration robust z-score: higher = faster migration into the scratch; migration relative to mock: higher = more scratch area covered than mock; nuclei per well: higher = more cells in the well
Call rule: 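Migration changed when robust z exceeds 2 or falls below -2 and mean nuclei number is at least 3300; otherwise not called changed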
Calls: active = migration changed; inactive = no migration change, or too few cells

no.	gene knocked down	migration robust z-score	migration class with cell-count check	migration relative to mock	nuclei per well, duplicate mean
1	DUSP18	0.78	migration z between -2 and 2; enough cells	0.96	5722
2	SETDB2	0.88	migration z between -2 and 2; enough cells	0.98	4952
3	HMGXB4	-0.18	migration z between -2 and 2; enough cells	0.84	6960
4	SCAPER	-0.03	migration z between -2 and 2; enough cells	0.88	5782
5	KRT12	0.55	migration z between -2 and 2; enough cells	1.03	5780
6	CCL3	0.69	migration z between -2 and 2; enough cells	1.06	7186
7	RAB9B	-0.1	migration z between -2 and 2; enough cells	0.78	5516
8	ZNF445	0.23	migration z between -2 and 2; enough cells	0.94	5796
9	PNOC	0.68	migration z between -2 and 2; enough cells	1.06	5520
10	NXF3	0.02	migration z between -2 and 2; enough cells	0.81	4287
11	B4GALNT4	0.78	migration z between -2 and 2; enough cells	0.96	6124
12	DCLK1	1.19	migration z between -2 and 2; enough cells	1.04	6510
13	ANAPC2	0.7	migration z between -2 and 2; enough cells	0.94	6078
14	COBLL1	-0.2	migration z between -2 and 2; enough cells	0.84	4452
15	TRIM68	-0.34	migration z between -2 and 2; enough cells	0.74	6360
16	TAF1C	-0.04	migration z between -2 and 2; enough cells	0.88	6646
17	RSBN1L	0.38	migration z between -2 and 2; enough cells	0.99	5847
18	PRELID3A	-0.09	migration z between -2 and 2; enough cells	0.86	5283
19	RGS7	0	migration z between -2 and 2; enough cells	0.8	6218
20	PREP	0.21	migration z between -2 and 2; enough cells	0.84	5770
21	NR0B2	0.29	migration z between -2 and 2; enough cells	0.86	3743
22	CYTH1	-0.19	migration z between -2 and 2; enough cells	0.84	5684
23	CTIF	0.14	migration z between -2 and 2; enough cells	0.92	6285
24	L1CAM-AS1	3.55 (active)	migration z above 2; enough cells	1.81	5686
25	CHST3	-0.5	migration z between -2 and 2; enough cells	0.71	4552
26	SLC2A9	0.36	migration z between -2 and 2; enough cells	0.88	6492
27	UQCRC1	-0.16	migration z between -2 and 2; enough cells	0.77	6437
28	TCF21	0.1	migration z between -2 and 2; enough cells	0.82	5535
29	PID1	0.66	migration z between -2 and 2; enough cells	1.06	6256
30	LUZP1	-0.96	migration z between -2 and 2; enough cells	0.64	5502
31	AGAP7P	-0.58	migration z between -2 and 2; enough cells	0.74	5616
32	ANGPT1	-0.72	migration z between -2 and 2; enough cells	0.66	3633
33	DPPA4	-1.25	migration z between -2 and 2; enough cells	0.55	6550
34	UBE2H	1.22	migration z between -2 and 2; enough cells	1.04	5925
35	SERPINA11	-0.2	migration z between -2 and 2; enough cells	0.83	3730
36	E2F3	-0.86	migration z between -2 and 2; enough cells	0.64	4528

The list goes on (7 carried over from the part before).
no.	gene knocked down	migration robust z-score	migration class with cell-count check	migration relative to mock	nuclei per well, duplicate mean
30	LUZP1	-0.96	migration z between -2 and 2; enough cells	0.64	5502
31	AGAP7P	-0.58	migration z between -2 and 2; enough cells	0.74	5616
32	ANGPT1	-0.72	migration z between -2 and 2; enough cells	0.66	3633
33	DPPA4	-1.25	migration z between -2 and 2; enough cells	0.55	6550
34	UBE2H	1.22	migration z between -2 and 2; enough cells	1.04	5925
35	SERPINA11	-0.2	migration z between -2 and 2; enough cells	0.83	3730
36	E2F3	-0.86	migration z between -2 and 2; enough cells	0.64	4528
37	ZNF695	-0.47	migration z between -2 and 2; enough cells	0.76	6412
38	ATM	-2.42 (active)	migration z below -2; enough cells	0.34	4216
39	SCAI	0.36	migration z between -2 and 2; enough cells	0.98	5898
40	TEX11	-1.55	migration z between -2 and 2; enough cells	0.48	5290
41	COPS3	-0.9	migration z between -2 and 2; enough cells	0.65	6032
42	LARGE2	0.39	migration z between -2 and 2; enough cells	0.88	4567
43	ZNF182	-0.84	migration z between -2 and 2; enough cells	0.66	6052
44	SKIC2	0.64	migration z between -2 and 2; enough cells	0.93	4779
45	ERF	0.57	migration z between -2 and 2; enough cells	0.92	5833
46	NBN	0.72	migration z between -2 and 2; enough cells	0.94	5530
47	CPNE1	-0.92	migration z between -2 and 2; enough cells	0.65	4544
48	SERPINB12	-0.26	migration z between -2 and 2; enough cells	0.76	5555
49	PSEN2	-2.33 (active)	migration z below -2; enough cells	0.36	4600
50	CYP4B1	-0.86	migration z between -2 and 2; enough cells	0.64	5730
51	ACE	-0.54	migration z between -2 and 2; enough cells	0.7	5612
52	RHBDF1	-0.7	migration z between -2 and 2; enough cells	0.7	5163
53	ESAM	-1.02	migration z between -2 and 2; enough cells	0.62	7140
54	ZNF140	2.12 (active)	migration z above 2; enough cells	1.44	6282
55	PKP4	0.08	migration z between -2 and 2; enough cells	0.9	5383
56	ZNF133	-1.53	migration z between -2 and 2; enough cells	0.49	6928
57	CYP17A1	0.42	migration z between -2 and 2; enough cells	0.88	6447
